Experimental data from publication PMC11905881.
Construct, isoform or probe ends are uncertain for at least one entry.

Target: lysozyme (UniProt P00698)
Test: binding assay
Details: free aptamer, published value; SPR: PBST (10 mM phosphate buffered saline, pH 7.4, 0.01% Tween 20), 25 °C; nanoparticles immobilized on carboxymethyl dextran Au chips, protein 4-64 nM; n = 3; commercial protein; single-stranded DNA

Question: How did the Kd turn out when “ATCAGGGCTAAAGAGTGCAGAGTTACTTAG [lysozyme aptamer (unmodified)]” was run?
Answer: 31 nM
